From patent EP4803151A2
These are yes or no findings as the source states them, for the method shown. Some binding calls cover weakened binding; strength is not graded here.

B1: 362H3D3-hIgG1 chimeric antibody (antibody, V domains shown)
VH: EVQLQQSGPELLKPGASVKISCKASGYTFTDYTMHWVKQSHGRSLEWIGGIHPNYGGTSYNEKFKDKATLTVDKSSSTAYMEFRSLTSEDSAVYYCARWGYYGGSYWYFDVWGTGTTVTVSS
VL: DIQMTQSPASLSVSVGETVTITCRASENIYSNLAWYQQKQGKSPQLLVYAATNLADGVPSRFSGSGSGTQYSLKINSLQSEDFGSYYCQHFWGTPYTFGGGTKLEIKR
B2: 129H2B9-hIgG1 chimeric antibody (antibody, V domains shown)
VH: EVNLEESGGGLVQPGGSMKLSCVVSGFTFSNYWMSWVRQSPEKGLEWVAEIRLKSDNYATHYAESVKGKFTISRDDSKSRLYLQMNSLRPEDTGIYYCTSNRFAYWGQGTLVTVSA
VL: NIVMTQSPKSVSMSVGERVTLSCKASENVGTYVYWYQQKPEQSPKMMIYGASNRYTGVPDRFTGSGSATDFTLTIRSVQAEDLADYHCGQSYSYPFTFGSGTKLEIKR
B3: 148C3A7-hIgG1 chimeric antibody (antibody, V domains shown)
VH: EVQLQQSGPELIKPGTSVKMSCKASGYTFTTYLMHWVKQKPGQGLEWIGYINPYNDVTEYHEKFKDKATLTSDKSSSTAYMELSSLTSEDSAVYYCARLGGYGPGWYLDVWGAGTTVTVSS
VL: DIQMTQSPASLSASVGETVTITCRASGSIHNYLAWYLHKQGKSPQLLVYNAKTLADGVPSRFSGSGSGTQYSLKINSLQPEDFGSYYCHHFWSTPWTFGGGTKLEIKR
B4: 310P3C5-hIgG1 chimeric antibody (antibody, V domains shown)
VH: EVQLQQSGPELVKPGASVKISCKASGYTFTDFYMNWVKQTHGKSLEWIGDANPNNGGTTHNPRFKGQATLTVDKSSNTAYMELRSLTSEDSAVYYCARGGLPGDFDYWGQGTTLTVSS
VL: DIQMTQSSSSFSVSLGDRVTITCKASEDIYNRLAWYQQKPGNAPRLLISGVTSLETGVPSRFSGSGSGKDYTLSITSLQTEDVATYYCQQYWSFPWTFGGGTKLEIKR
B5: 36B7F3-hIgG1 chimeric antibody (antibody, V domains shown)
VH: QVQLQQSGPELVKPGASVKISCRASGYTFTDHHLNWVKQRPGQGLEWIGWIFPGSGSDYYNERFKDKATLTVDKSSSTAYMLLSSLTSEDSAVYFCERWDYWGQGTTLTVSS
VL: QIVLTQSPTIMSASPGEKVTMTCSASSSISYMHWYQQKPGTSPKRWIYDTSTLASGVPARFSGGGSGTSYSLTISSMEAEDAATYYCHQRSSYPLTFGAGTKLELKR

Each binder was assayed against recombinant cynomolgus DLL3 his tag protein (KACTUS, Cat. No. DLL-CM103) (cynomolgus) (assay: ELISA, cynoDLL3-his coated at 1 ug/mL).

binding, binds:
B1, B2, B3, B4, B5
